Measurements reported in article PMC9831603.

Sequences of proteins named here, by UniProt entry; tags and fusion partners are left off. A change or cut given only in a name is not applied to a line headed by its entry. A line that says so, or that is headed by a name, gives the form on record, which may keep a tag or linker.
Arl3-T31N-FLAG (P36405, form named): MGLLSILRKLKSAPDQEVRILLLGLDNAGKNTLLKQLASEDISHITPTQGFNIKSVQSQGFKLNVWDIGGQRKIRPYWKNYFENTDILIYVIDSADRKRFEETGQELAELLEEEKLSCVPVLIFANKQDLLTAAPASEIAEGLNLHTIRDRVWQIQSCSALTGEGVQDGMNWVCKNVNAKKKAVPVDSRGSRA
Arl3-Q71L-FLAG (P36405, form named): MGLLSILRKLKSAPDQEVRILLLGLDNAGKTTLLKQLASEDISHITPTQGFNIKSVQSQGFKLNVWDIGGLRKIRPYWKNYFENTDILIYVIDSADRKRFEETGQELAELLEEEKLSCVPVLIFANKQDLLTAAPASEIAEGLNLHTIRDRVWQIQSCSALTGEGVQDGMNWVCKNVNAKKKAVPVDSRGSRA

Tests used:
Arl3-T31N-FLAG (human) = Arl3-T31N-FLAG (human) (UniProt P36405); test: affinity purification with mass spectrometry; FLAG immunoprecipitation from DSS-cross-linked AD-293 cells expressing Arl3-Q71L-FLAG or Arl3-T31N-FLAG; in-gel tryptic digest, LC-MS/MS
Arl3-Q71L-FLAG (human) = Arl3-Q71L-FLAG (human) (UniProt P36405); test: as above

binding (Arl3-T31N-FLAG (human)): no binding | binding (Arl3-Q71L-FLAG (human)): binds
B1: BART (endogenous) (protein, UniProt Q9Y2Y0 1-163)
chain: MDALEGESFALSFSSASDAEFDAVVGYLEDIIMDDEFQLLQRNFMDKYYLEFEDTEENKLIYTPIFNEYISLVEKYIEEQLLQRIPEFNMAAFTTTLQHHKDEVAGDIFDMLLTFTDFLAFKEMFLDYRAEKEGRGLDLSSGLVVTSLCKSSSLPASQNNLRH

No constants are given. Whether binding was seen depends on the method and setting. In cells and extracts the contact can be indirect. A yes stands for co-enrichment or nearness to the bait. Other partners may have been found. For some assays here: No binding means not detected with the bait.
